Values joined by “and” are separate entries in the source; they are usually repeats but may differ in a detail not shown here. Equal values may be shown once. Screen size: about 300,000 compounds; about 5,400 (1.8%) were called active. This list was built around the results that the source calls inconclusive (neither active nor inactive); the mix of calls is not that of the screen. Calls come from the whole dose curve; tested in HEK293 cells. Where the call is inconclusive, the potency comes from a doubtful curve fit.
Experiment: qHTS for inhibitors of binding or entry into cells for Marburg Virus
Conditions: Marburg virus pseudotyped entry inhibition, cell reporter; series mostly up to 37.8 µM
Potency is the fitted concentration of half-maximal effect.

Structure (SMILES) | Potency
CC(=O)Nc1sc(NC(=O)c2ccc(Cl)cc2)nc1-c1cccs1 | inconclusive: 0.631 µM [activator, full curve, poor fit]
COc1ccc(C(C)(C)C)cc1NC(=O)CNc1cccc2ccccc12 | inconclusive: 10 µM [inhibitor, single point]
COc1ccc(OC)c(C(c2nnnn2Cc2ccccc2)N2CCN(C)CC2)c1 (configuration not stated) | inconclusive: 1.58 µM [activator, partial curve]
CCc1ccc(NS(=O)(=O)c2[nH]ncc2C(=O)OC)cc1 | inconclusive: 22.4 µM [activator, single point]
Cc1ccccc1Cn1c(=O)n(-c2ccc(Cl)cc2)c(=O)c2c3c(sc21)CCCC3 | inactive
O=C(CCc1nnc2n(Cc3ccccc3)c(=O)c3ccccc3n12)NCCCN1CCCCC1 | inconclusive: 5.62 µM [inhibitor, partial curve, poor fit]
COc1ccc(-c2cc3ccc(OCc4nn[nH]n4)cc3oc2=O)cc1 | inconclusive: 23.1 µM [inhibitor, single point]
CCNc1nc(Oc2ccc(OC)cc2)cc(C(F)(F)F)n1 | inconclusive: 17.8 µM [inhibitor, single point]
Cc1cc(NC(=O)CS(=O)(=O)c2cn(Cc3cccc(F)c3)c3ccccc23)no1 | inconclusive: 3.55 µM [inhibitor, partial curve, poor fit]
COc1ccc(NS(=O)(=O)c2cc(NC(=O)C3CCCCC3)ccc2N2CCOCC2)cc1 | inconclusive: 0.562 µM [inhibitor, full curve, poor fit]
CCN(CC)S(=O)(=O)c1ccc(OC(C)C)c(NC(=O)c2c3c(nc4ccccc24)CCN(Cc2ccccc2)C3)c1 | inconclusive: 8.2 µM [inhibitor, partial curve] and inconclusive: 891 nM [inhibitor, full curve]
CCCCN(CC)C(=O)Cn1cnc2sc(C)c(S(=O)(=O)N3CCC(C)CC3)c2c1=O | inactive
CCC(C)NC(=O)c1sc2nc(C)c(C(=O)Nc3ccc(C)cc3C)c(-c3ccc(NC(C)=O)cc3)c2c1N (configuration not stated) | inactive
CCn1c(=N)n(CC(=O)c2ccc(Cl)c(Cl)c2)c2ccccc21 | inconclusive: 10 µM [inhibitor, partial curve, poor fit]
Nc1sc(-c2ccccc2)cc1C(=O)N/N=C/c1ccc(Cl)cc1 | inactive
Cc1cccc(/C=N/NC(=O)c2cccc(Cl)c2)n1 | inactive
COCCNC(=O)CCCn1c(SCC(=O)NCc2ccc(C)cc2)nc2c(sc3ccccc32)c1=O | inactive
COCCCNC(=S)N(CCO)Cc1cc2cc3c(cc2[nH]c1=O)OCO3 | inactive
O=C(Nc1ccccc1)c1ccc(=O)[nH]n1 | inconclusive: 2 µM [activator, partial curve, poor fit]
Cc1cc(C)n(-c2nc(SCCN(C)C)c3c4c(sc3n2)CCCC4)n1 | inconclusive: 29.1 µM [inhibitor, single point]
CC(=O)OC1CCC2(C)C(CC(=O)C3C2CCC2(C)C(OC(C)=O)CCC32)C1 (configuration not stated) | inactive

Structure (SMILES) | Potency
CC1CCCCN1C(=O)c1ccc(N2CC3CC(C2)c2cccc(=O)n2C3)c([N+](=O)[O-])c1 (configuration not stated) | inconclusive: 1.26 µM [activator, single point]
COc1ccc(/C=N/n2c(C)nc3ccccc3c2=O)cc1 | inconclusive: 11.2 µM [activator, partial curve, poor fit]
Cn1c(SCc2nc3ccccc3[nH]2)nnc1-c1cnccn1 | inactive
COC(=O)c1ccc(Cn2c(SCc3ccc(F)cc3)nc3ccncc32)cc1 | inactive
CCCOc1ccc(-c2c(C(=O)N/N=C(\C)COc3ccccc3)nnn2-c2nonc2N)cc1 | inconclusive: 31.6 µM [inhibitor, partial curve, poor fit]
COc1ccc(O)c(C(=O)c2coc(=N)c(C(=O)Nc3ccc(SC(F)F)cc3)c2)c1 | inconclusive: 0.562 µM [inhibitor, full curve, poor fit]
COc1ccccc1C(=O)Nc1nnn(C)n1 | inactive
CC1=NN(c2ccccc2)C(=O)C1(C)[N+](=O)[O-] (configuration not stated) | inactive
COCCNC(=O)C1(C)Oc2ccccc2NC1=O (configuration not stated) | inconclusive: 6.31 µM [inhibitor, single point]
COc1ccc(CC(=O)N2CCc3cc(OC)c(OC)cc3C2COc2ccc3c(C)cc(=O)oc3c2)cc1OC (configuration not stated) | inconclusive: 25.1 µM [inhibitor, single point]
C=CCc1ccc(OCC(O)CN2CCN(Cc3ccc(Cl)cc3)CC2)c(OC)c1 (configuration not stated) | active: 8.2 µM
COC(=O)[C@@H]1CC[C@H](C)[C@@H](c2ccc(C)cc2)N1C(=O)c1ccc(/C=N/O[C@@H](C)c2cn([C@H](CO)Cc3ccccc3)nn2)cc1 | inconclusive: 23.1 µM [inhibitor, partial curve, poor fit]
COc1nn(-c2ccccc2)c(=O)c(Cl)c1Cl | inconclusive: 22.4 µM [inhibitor, partial curve, poor fit]
Cc1ccc(NC2CC(=O)N(c3ccc(C)cc3)C2=O)cc1 (configuration not stated) | inactive
Cc1cc(=O)[nH]c(SCC(=O)c2ccc(O)c(O)c2)n1 | inconclusive: 14.1 µM [activator, partial curve, poor fit]
CN(C)CCNC(=O)c1cccn(Cc2cc(C(F)(F)F)cc(C(F)(F)F)c2)c1=O | inconclusive: 20 µM [inhibitor, partial curve, poor fit]
CCN(Cc1ccccc1)C(=O)c1oc2ccc(C)cc2c1C | inconclusive: 2.82 µM [inhibitor, partial curve, poor fit]
Cc1cccc(-n2cc[nH]c2=S)c1C | inconclusive: 0.0891 µM [activator, partial curve, poor fit]
O=C(CN1C(=O)S/C(=C\c2ccccc2)C1=O)NC1CCS(=O)(=O)C1 (configuration not stated) | inactive
Cc1ccc(-c2onc3ccc(Cl)cc23)cc1 | inconclusive: 35.5 µM [activator, single point]
CCOC(=O)N1CCN(CC(=O)Nc2ccc(Oc3ccccc3)cc2)CC1 | inactive

4 consecutive compounds already listed:
Structure (SMILES) | Potency
C=CCc1ccc(OCC(O)CN2CCN(Cc3ccc(Cl)cc3)CC2)c(OC)c1 (configuration not stated) | active: 8.2 µM
COC(=O)[C@@H]1CC[C@H](C)[C@@H](c2ccc(C)cc2)N1C(=O)c1ccc(/C=N/O[C@@H](C)c2cn([C@H](CO)Cc3ccccc3)nn2)cc1 | inconclusive: 23.1 µM [inhibitor, partial curve, poor fit]
COc1nn(-c2ccccc2)c(=O)c(Cl)c1Cl | inconclusive: 22.4 µM [inhibitor, partial curve, poor fit]
Cc1ccc(NC2CC(=O)N(c3ccc(C)cc3)C2=O)cc1 (configuration not stated) | inactive
